Reference: patent publication US20100150924A1 (published 2010)
No constants are given. Whether binding was seen depends on the method and setting. Some binding calls cover weakened binding; strength is not graded here. Sequences can lack the tags named with a protein.

How the values were obtained:
[1] = target: T1, endogenous rat Necl1 (on cultured DRG neurons; also in rat brain membranes) (rat) (UniProt Q1WIM3); test: Fc-fusion binding to DRG neurons after Necl1 siRNA or control siRNA
T1 sequence (looked up): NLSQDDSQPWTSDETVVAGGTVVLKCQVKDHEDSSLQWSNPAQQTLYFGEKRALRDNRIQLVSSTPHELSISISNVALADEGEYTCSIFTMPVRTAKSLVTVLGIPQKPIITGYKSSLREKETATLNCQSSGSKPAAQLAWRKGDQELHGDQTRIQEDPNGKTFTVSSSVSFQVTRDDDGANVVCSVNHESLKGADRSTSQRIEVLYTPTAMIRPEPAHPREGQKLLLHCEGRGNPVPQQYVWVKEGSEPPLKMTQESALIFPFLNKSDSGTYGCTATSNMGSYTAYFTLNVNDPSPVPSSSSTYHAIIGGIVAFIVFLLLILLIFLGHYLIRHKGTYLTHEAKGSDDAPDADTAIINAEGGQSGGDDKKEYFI

[2] = target: T1, endogenous rat Necl1 (on cultured DRG neurons; also in rat brain membranes) (rat); test: Fc-fusion binding to DRG neurons after Necl1 siRNA
[3] = target: T1, endogenous rat Necl1 (on cultured DRG neurons; also in rat brain membranes) (rat); test: co-clustering on DRG neurons after aggregation of the Fc-fusion
[4] = target: T1, endogenous rat Necl1 (on cultured DRG neurons; also in rat brain membranes) (rat); test: clustering of bound Fc-fusion on cells, then immunostaining

Measured: binding

B1: Necl4-Fc (extracellular domain of Necl4 fused to the constant region of human IgG1) (Fc fusion)
chain: QEVQTENVTVAEGGVAEITCRLHQYDGSIVVIQNPARQTLFFNGTRALKDERFQLEEFSPRRVRIRLSDARLEDEGGYFCQLYTEDTHHQIATLTVLVAPENPVVEVREQAVEGGEVELSCLVPRSRPAAVLRWYRDRKELKGVSSGQENGKVWSVASTVRFRVDRKDDGGIVICEAQNQALPSGHSKQTQYVLDVQYSPTARIHASQAVVREGDTLVLTCAVTGNPRPNQIRWNRGNESLPERAEAVGETLTLPGLVSADNGTYTCEAANKHGHARALYVLVVYDPGAVVEAQTSVPY
notes: also called soluble Necl-4; soluble Necl4; not shown: constant region (Fc) of human IgG1
binds: [1] | [2] | [3] | [4]
